# Laboratory results from PubChem BioAssay AID1671190 (National Center for Advancing Translational Sciences (NCATS), 2021).
# Protein sequences, listed by entry. Tags and fused reporters are not part of them. Lines headed by an entry give the natural chain unless they say otherwise; changes in a name come on top.
# UniProt P18054: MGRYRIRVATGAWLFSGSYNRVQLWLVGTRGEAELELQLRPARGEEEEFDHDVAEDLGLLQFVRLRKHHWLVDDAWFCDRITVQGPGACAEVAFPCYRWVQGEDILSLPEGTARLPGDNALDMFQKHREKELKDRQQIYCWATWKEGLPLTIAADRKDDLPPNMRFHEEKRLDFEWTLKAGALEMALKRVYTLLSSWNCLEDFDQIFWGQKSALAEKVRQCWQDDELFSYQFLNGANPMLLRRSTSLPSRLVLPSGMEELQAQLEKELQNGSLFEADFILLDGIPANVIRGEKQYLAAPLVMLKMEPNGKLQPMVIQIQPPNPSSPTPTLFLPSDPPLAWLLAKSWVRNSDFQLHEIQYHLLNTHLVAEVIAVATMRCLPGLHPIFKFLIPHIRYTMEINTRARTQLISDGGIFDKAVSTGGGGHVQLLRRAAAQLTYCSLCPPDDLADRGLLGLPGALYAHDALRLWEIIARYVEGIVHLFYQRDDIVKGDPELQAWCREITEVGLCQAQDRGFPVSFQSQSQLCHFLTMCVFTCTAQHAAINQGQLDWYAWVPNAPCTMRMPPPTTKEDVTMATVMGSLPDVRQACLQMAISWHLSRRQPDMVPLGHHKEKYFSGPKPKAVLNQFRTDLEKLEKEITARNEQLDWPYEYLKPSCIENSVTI
# Hit rate of the full screen: of about 580,000 compounds, about 6,100 (1.1%) were called active. The inconclusive results got no clear call from the source; some entries with a clear call stand among them for comparison. Calls come from the whole dose curve; as a rule, active = well fitted inhibition curve with a large enough effect; inconclusive = small, poorly fitted or top-dose-only effect, or another doubt; inactive = no such curve, though single readings can be large or run the other way. A potency beside an inconclusive call is a rough fit, not a confirmed value.
# Target: Polyunsaturated fatty acid lipoxygenase ALOX12 (Homo sapiens) (UniProt P18054)
# Experiment: Primary qHTS assay for inhibitors of human arachidonate 12S-lipoxygenase (ALOX12): Round 2
# Details: purified 12hLO, xylenol orange hydroperoxide absorbance; activity change, negative = inhibition: at 108 µM (top of the series) unless noted
# How it was run: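 Hydroperoxide product was detected by ferrous iron/xylenol orange as the 573 to 405 nm absorbance ratio. Arachidonic acid at 40 uM (final) was turned over for 30 min at room temperature by 150 nM human 12hLO, pH 7.0 Hepes buffer, after 15 min compound preincubation.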
# % is set by controls: 0 for no effect and ±100 for the full control effect; potency is the fitted concentration of half-maximal effect.
SMILES,Potency,"activity change, negative = inhibition"
CN(C)c1ccc(Nc2nc3ccccc3n3nnnc23)cc1,"inconclusive: 100 µM [inhibitor, single point]",
CCCC1c2nccn2CCCN1C(=O)c1noc(C)c1COC (centres undefined),,inactive: 3.84%
CCc1ccc(C(O)(CC(C)C)C(CN2CCOCC2)c2ccccc2)cc1 (centres undefined),"inconclusive: 39.8 µM [inhibitor, partial curve, poor fit]",
Clc1cccc(CN2CCN(Cc3ccco3)CC2)c1,"inconclusive: 3.55 µM [inhibitor, full curve, poor fit]",
O=C(NP(=O)(N1CCOCC1)N1CCOCC1)C1=C(N2CCOCC2)/C(=C\c2ccccc2)CC1,"inconclusive: 44.7 µM [inhibitor, partial curve, poor fit]",
COC(=O)CCC(=O)Nc1cc(S(=O)(=O)Nc2ccc(Cl)cc2)ccc1N1CCOCC1,"inconclusive: 44.7 µM [inhibitor, partial curve, poor fit]",
Cc1c(CN2CCC(CO)(CCOc3ccccc3)CC2)[nH]c2ccc(Cl)cc12,"inconclusive: 44.7 µM [inhibitor, partial curve]",
COc1ccc(-c2c(-c3ccccc3)c(C(=O)C(=O)NCCCN(C)C)n3ccc4cc(OC)c(OC)cc4c23)cc1OC,"inconclusive: 44.7 µM [inhibitor, partial curve, poor fit]",
CCC1(C)Nc2ccccc2C(=O)N1O (centres undefined),active: 0.631 µM,
C[C@H](NS(=O)(=O)c1ccc(Cl)c(Cl)c1)C(=O)OCc1cc(=O)n2cc(Br)ccc2n1,,inactive: -29.4%
Cc1c(OCC(=O)C(C)(C)C)ccc2c3c(c(=O)oc12)CCC3,"inconclusive: 224 µM [inhibitor, partial curve, poor fit]",
Nc1nc(F)nc2c1ncn2[C@@H]1O[C@H](CO)[C@@H](O)[C@H]1O,,inactive: -5.03%
COC(=O)c1ccc(OCCOc2ccc(F)cc2)c(OC)c1,"inconclusive: 25.1 µM [inhibitor, partial curve, poor fit]",
CC1=C(C(=O)Nc2ccc(C)cc2C)C(c2ccc(Br)cc2)n2ncc(C(=O)Nc3cccc(C)c3)c2N1 (centres undefined),"inconclusive: 141 µM [inhibitor, partial curve, poor fit]",
Fc1ccc(-n2c(=S)[nH]c3cccnc32)cc1,"inconclusive: 39.8 µM [inhibitor, partial curve, poor fit]",
Cc1ccc(CN2CCCC(c3nn(-c4ccc(Cl)cc4)c(=O)[nH]3)C2)cc1 (centres undefined),active: 17.8 µM,
COc1cc(CN(C(=O)c2ccc3c(c2)NC(=O)CS3)C2CC2)ccc1OC(F)F,"inconclusive: 3.98 µM [inhibitor, full curve, poor fit]",
Cc1nnsc1C(=O)Nc1ccc(Cl)cc1Cl,"inconclusive: 79.4 µM [inhibitor, partial curve, poor fit]",
N#C/C(=C\c1ccc(O)c([N+](=O)[O-])c1)c1nc2ccccc2s1,active: 22.4 µM,
CCOc1c(O)ccc(/C=C2\SC(=S)NC2=O)c1[N+](=O)[O-],"inconclusive: 50.1 µM [inhibitor, partial curve, poor fit]",
O=C(CSc1ccc2nnc(-c3ccccn3)n2n1)NCc1ccco1,"inconclusive: 39.8 µM [inhibitor, single point]",
O=c1[nH]c(/C=C\c2cccs2)nc(O)c1[N+](=O)[O-],active: 22.4 µM,

SMILES,Potency,"activity change, negative = inhibition"
O=C(c1ccc(Cl)c(Cl)c1)N1CCC(=O)N([C@H](COCc2ccccc2)Cc2ccccc2)CC1,"inconclusive: 35.5 µM [inhibitor, single point]",
C[C@H](NC(=O)OCc1ccccc1)c1nnc([C@H](Cc2ccccc2)NC(=O)OC(C)(C)C)o1,"inconclusive: 3.55 µM [inhibitor, full curve, poor fit]",
COc1cc(-c2noc(-c3ncn4c3COC(c3ccc(F)cc3)C4)n2)cc(OC)c1OC (centres undefined),"inconclusive: 10 µM [inhibitor, full curve, poor fit]",
O=C1CN(C(=O)Cc2c[nH]c3ncc(-c4ccccc4)cc23)CCN1,"inconclusive: 11.2 µM [inhibitor, full curve, poor fit]",
CS(=O)(=O)CCNCc1nc(-c2ccc3ncnc(Nc4ccc(OCc5cccc(F)c5)c(Cl)c4)c3c2)cs1,"inconclusive: 10 µM [inhibitor, full curve, poor fit]",
CCC(=O)N(C1CCOCC1)C1CCN(S(=O)(=O)c2ccc(C)cc2C)CC1,"inconclusive: 31.6 µM [inhibitor, partial curve]",
CCCSc1nc2c(cnn2-c2ccccc2)c(=O)[nH]1,"inconclusive: 25.1 µM [inhibitor, full curve, poor fit]",
CC1CCN(CCNC(=S)Nc2ccc(Cl)cc2)CC1,"inconclusive: 44.7 µM [inhibitor, partial curve, poor fit]",
O=C(CCNC(=O)c1ccc([N+](=O)[O-])cc1)NCc1cccs1,"inconclusive: 89.1 µM [inhibitor, single point]",
COc1ccc2sc(-c3ccc(N(C)C)cc3)c(C#Cc3cncn3C)c2c1,,inactive: -3.14%
COc1ccc2c(c1)OCC(C(=O)NCC1(c3ccccc3)CCOCC1)C2 (centres undefined),"inconclusive: 100 µM [inhibitor, partial curve, poor fit]",
CCOC(=O)c1[nH]c2c(c1Cc1ccccc1)C(=O)CC(c1ccccc1)C2 (centres undefined),"inconclusive: 5.01 µM [inhibitor, full curve, poor fit]",
CC(C)CN(CC1CN(C(=O)c2ccccc2)CCO1)C(=O)c1cccc2ccccc12 (centres undefined),,inactive: 13.6%
N=c1n(Cc2ccccc2)c2ccccc2n1Cc1ccccc1,"inconclusive: 50.1 µM [inhibitor, partial curve, poor fit]",
COc1ccc(C(=O)Nc2ccc3c(c2)n(C)c(=O)n3C)cc1OC,,inactive: -8.2%
COc1ccc(C2=NN(C(=O)c3ccco3)C(c3ccco3)C2)cc1OC (centres undefined),"inconclusive: 112 µM [inhibitor, single point]",
Cc1nn(CC(=O)NCc2cccnc2)c(=O)c2ccccc12,"inconclusive: 39.8 µM [inhibitor, partial curve, poor fit]",
COC(=O)[C@]12C[C@H](CC(=O)N3CCOCC3)C(=O)N(Cc3ccccc3)C1=C[C@H](C1CCCC1)O[C@@H]2C,,inactive: -10.1%
CN1CCC([C@@H]2CN(S(=O)(=O)c3ccc(F)c(F)c3)C[C@H]2C(N)=O)CC1,"inconclusive: 28.2 µM [inhibitor, full curve, poor fit]",
COc1ccc(CC(=O)N2CC[C@@H](CC(=O)O)[C@@H](CCN3CCN(c4cccc(C(F)(F)F)c4)CC3)C2)cc1,"inconclusive: 25.1 µM [inhibitor, single point]",
Cc1ccc(-c2csc(NC(=O)c3cc(=O)c4ccccc4o3)n2)cc1C,"inconclusive: 31.6 µM [inhibitor, partial curve, poor fit]",
Cc1ccccc1CN1Cc2nc(OCc3cccnc3)ccc2OCC1=O,,inactive: 4.39% [at 176 µM]

# Random excerpt: 4 records from the list, in no set order.
SMILES,Potency,"activity change, negative = inhibition"
O=C1CN(C(=O)Cc2c[nH]c3ncc(-c4ccccc4)cc23)CCN1,"inconclusive: 11.2 µM [inhibitor, full curve, poor fit]",
Cc1ccc(-c2csc(NC(=O)c3cc(=O)c4ccccc4o3)n2)cc1C,"inconclusive: 31.6 µM [inhibitor, partial curve, poor fit]",
O=C(c1ccc(Cl)c(Cl)c1)N1CCC(=O)N([C@H](COCc2ccccc2)Cc2ccccc2)CC1,"inconclusive: 35.5 µM [inhibitor, single point]",
O=C(CCNC(=O)c1ccc([N+](=O)[O-])cc1)NCc1cccs1,"inconclusive: 89.1 µM [inhibitor, single point]",

# Later entries

SMILES,Potency,"activity change, negative = inhibition"
Cc1nc(-c2cccc(NC(=O)c3ccc4[nH]c(C)c(C)c4c3)c2)cs1,"inconclusive: 31.6 µM [inhibitor, partial curve, poor fit]",
CC(C)Oc1ccc(C(=O)NCC(c2ccc(N(C)C)cc2)N2CCc3ccccc32)cc1 (centres undefined),,inactive: -17.6%
O=C(Nc1cc(S(=O)(=O)N2CCOCC2)ccc1O)c1ccc(NS(=O)(=O)c2ccc(Cl)s2)cc1,"inconclusive: 70.8 µM [inhibitor, single point]",
CC1CN(CCS(=O)c2ccccc2)CC(C)O1 (centres undefined),,inactive: -1.28%
CCOc1ccccc1C1NC(=O)N(CC(=O)Nc2ccc(F)cc2)C2=C1C(=O)OC2 (centres undefined),"inconclusive: 28.2 µM [inhibitor, single point]",
COc1ccc(NC(=O)CN2C(=O)NC(c3ccccc3)(c3ccccc3)C2=O)cc1,,inactive: -21%
CC(C)c1noc(CN(C)C(=O)CC2C(=O)NCCN2Cc2ccoc2)n1 (centres undefined),"inconclusive: 10 µM [inhibitor, full curve]",
O=C(N/N=C/c1c[nH]c2ccccc12)c1csc2ccccc12,,inactive: 13.7%
COc1ccc(NC(=O)CN2CCN(c3ccccc3Cl)CC2)cc1,,inactive: 0%
Cc1nnc(SCC(=O)N2CCN(Cc3ccccc3)CC2)s1,,inactive: -6.82%
CC1CCN(CCOc2ccc(C(=O)c3ccccc3)cc2)CC1,"inconclusive: 4.47 µM [inhibitor, full curve]",
Cc1cccn2c(=O)c3cc(C(=O)NC4CCCCC4)c(=N)n(Cc4ccc(F)cc4)c3nc12,,inactive: 0.902%
O=C(Nc1ccc(Br)cc1)c1cc(S(=O)(=O)NC2CCCC2)ccc1F,"inconclusive: 44.7 µM [inhibitor, partial curve, poor fit]",
Cc1ccc(/C=C/C(=O)NCc2ccc3c(c2)OCO3)o1,"inconclusive: 50.1 µM [inhibitor, partial curve, poor fit]",
CN(CC(=O)NC(N)=O)c1ccc(C(C)(C)C)cc1,"inconclusive: 35.5 µM [inhibitor, partial curve, poor fit]",
Cc1ccc(C(C)n2cc(C(=O)NCc3cccnc3)nn2)cc1 (centres undefined),,inactive: -6.53%
CCN(c1ccccc1)S(=O)(=O)c1nnc(NC(=O)C2CCCCC2)s1,,inactive: -22.4%
Fc1ccc(-n2cc(-c3ccccc3)c3c(=S)nc[nH]c32)cc1,"inconclusive: 0.794 µM [inhibitor, partial curve, poor fit]",
CNC(=S)N/N=C/c1cc(C)n(-c2ccc(Cl)c(Cl)c2)c1C,"inconclusive: 50.1 µM [inhibitor, partial curve, poor fit]",
O=C(/C=C/c1ccco1)OCC(=O)c1cccc([N+](=O)[O-])c1,"inconclusive: 112 µM [inhibitor, single point]",
